PubChem BioAssay AID720505, Drosophila RNAi Screening Center – 2013
Purpose: 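Genes needed for store-operated calcium entry in fly cells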 (primary screen). Cells: Drosophila S2R+ cells. Knock-down reagent: long dsRNA against Drosophila genes. Conditions: thapsigargin (2 µM) in calcium-free buffer to empty internal stores, then 2 mM calcium added back. Read-out: 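Stores emptied by 2 µM thapsigargin without calcium, then 2 mM calcium re-added; fluo-4 fluorescence followed by FLIPR in 384-well plates, per-well averaged endpoint, raw; two screen passes, some wells retested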. Direction: calcium signal: higher = more calcium entry after store depletion. Call rule: 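About 1500 genes called as lowering calcium entry, by varying amounts, judged against per-plate control wells with STIM1 as positive and Rho1 as negative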. Meaning of the calls: active = called as lowering calcium entry; inactive = not called.
The deposit covers about 20,000 reagents; this is an unselected part of those with a known target gene and a result. Over the whole deposit, about 2,100 (10%) got an active call. 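Raw plate signals without normalisation; calls rest on control-based scores that were not deposited; replicate 2 separates called from uncalled poorly.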 A plus sign joins genes that one reagent is predicted to hit. The record does not give: the amount of reagent, the time to read-out.

no.	gene	DRSC id	calcium signal, replicate 1	calcium signal, replicate 2	outcome
1	Muc68D (Mucin 68D)	DRSC10569	117	116	inactive
2	CG15213	DRSC10213	86.2	86.4	inactive
3	TH1	DRSC20289	125	136	inactive
4	CG11741	DRSC14367	134	181	inactive
5	CG14275	DRSC02379	148	143	inactive
6	CG4270	DRSC00648	157	174	inactive
7	Fer1HCH (Ferritin 1 heavy chain homologue)	DRSC16671	94	156	inactive
8	CG8774	DRSC16445	66	108	active
9	phol (pleiohomeotic like)	DRSC10367	107	126	inactive
10	krimp (krimper)	DRSC06578	181	78.6	inactive
11	mthl10 (methuselah-like 10)	DRSC08504	102	108	inactive
12	mthl10 (methuselah-like 10)	DRSC08505	93.1	84.1	inactive
13	CG14797	DRSC17955	105	128	inactive
14	Poc1 (Proteome of centrioles 1)	DRSC09713	60.1	98.8	active
15	TbCMF46	DRSC02221	206	174	inactive
16	CG14837	DRSC10207	111	102	inactive
17	Nthl1 (Nth-like DNA glycosylase 1)	DRSC03183	168	118	inactive
18	Vhl (von Hippel-Lindau)	DRSC07716	76	122	inactive
19	Dhc93AB (Dynein heavy chain at 93AB)	DRSC16644	179	202	inactive
20	Fit1 (Fermitin 1)	DRSC08450	82.5	83	inactive
21	CG4382	DRSC02743	183	198	inactive
22	GNBP-like3 (GNBP-like 3)	DRSC06385	112	113	inactive
23	HP6 (Heterochromatin protein 6)	DRSC00471	134	125	inactive
24	Cdk7 (Cyclin-dependent kinase 7)	DRSC18451	63.8	277	active
25	Cdk7 (Cyclin-dependent kinase 7)	DRSC23327	107	156	inactive
26	CG14195	DRSC19550	76.1	125	active
27	RNF220 (ring finger protein 220)	DRSC15652	197	318	inactive

Continued; the last 3 above are carried over.
no.	gene	DRSC id	calcium signal, replicate 1	calcium signal, replicate 2	outcome
25	Cdk7 (Cyclin-dependent kinase 7)	DRSC23327	107	156	inactive
26	CG14195	DRSC19550	76.1	125	active
27	RNF220 (ring finger protein 220)	DRSC15652	197	318	inactive
28	PolQ (DNA polymerase theta)	DRSC17006	144	73.4	inactive
29	ago (archipelago)	DRSC08463	80.4	117	inactive
30	hoka	DRSC08313	100	81.5	inactive
31	Tcs5 (Threonyl-carbamoyl synthesis 5)	DRSC09774	112	102	inactive
32	Nedd8 (Nedd8 ubiquitin like modifier)	DRSC02092	113	111	inactive
33	Adh + Adhr	DRSC01862	79.3	168	inactive
34	Adh + Adhr	DRSC01863	96	124	inactive
35	CG34326 (retired record)	DRSC19165	76.4	82.7	inactive
36	CG5050	DRSC02807	128	102	inactive
37	CG31926	DRSC00295	180	166	inactive
38	sano (serrano)	DRSC06165	114	158	inactive
39	CG5498	DRSC11608	115	116	inactive
40	mTerf3 (mitochondrial transcription termination factor 3)	DRSC11759	124	94.8	inactive
41	CG13738	DRSC10065	113	110	inactive
42	Abl (Abl tyrosine kinase)	DRSC09661	114	165	inactive
43	Abl (Abl tyrosine kinase)	DRSC23306	104	125	inactive
44	c(2)M (crossover suppressor on 2 of Manheim)	DRSC01922	72.5	147	inactive
45	Elovl7 (ELOVL fatty acid elongase 7)	DRSC15452	88.2	142	inactive
46	Elovl7 (ELOVL fatty acid elongase 7)	DRSC21570	124	83.5	inactive
47	CG14052	DRSC17907	55.8	125	active
48	CG14052	DRSC18192	133	149	inactive
49	Elk (Eag-like K[+] channel)	DRSC07608	150	156	inactive
50	CG5883	DRSC10552	66	95.6	active
51	CG7382	DRSC03052	146	166	inactive
52	CycC (Cyclin C)	DRSC16619	66.8	98.3	active
53	CG17646	DRSC00507	103	300	inactive
54	und (uninitiated)	DRSC03629	104	131	inactive
55	Ntan1 (N-terminal amidohydrolase 1)	DRSC07546	173	162	inactive
56	CG1889 + CG43386	DRSC17979	73.8	144	active
